Results are given in words; binding and its absence hold for the method and conditions named. Binding can be weak; no strength is given. Where a sequence is shown, tags or fusion partners need not be part of it. For some of these results: Binding seen in cells or lysates may run through a third protein.
Tests used:
[1] = target: T1, SUCROSE NO… 1-RELATED PROTEIN KINASE 1A fused to the GAL4 DNA-binding domain (rice (Oryza sativa L.)) (UniProt Q852Q2); assay: two-hybrid; yeast AH109; OsFLZ-AD (pGADT7) with SnRK1A-BD (pGBKT7); growth on SD/-Trp/-Leu/-His/-Ade
T1 sequence: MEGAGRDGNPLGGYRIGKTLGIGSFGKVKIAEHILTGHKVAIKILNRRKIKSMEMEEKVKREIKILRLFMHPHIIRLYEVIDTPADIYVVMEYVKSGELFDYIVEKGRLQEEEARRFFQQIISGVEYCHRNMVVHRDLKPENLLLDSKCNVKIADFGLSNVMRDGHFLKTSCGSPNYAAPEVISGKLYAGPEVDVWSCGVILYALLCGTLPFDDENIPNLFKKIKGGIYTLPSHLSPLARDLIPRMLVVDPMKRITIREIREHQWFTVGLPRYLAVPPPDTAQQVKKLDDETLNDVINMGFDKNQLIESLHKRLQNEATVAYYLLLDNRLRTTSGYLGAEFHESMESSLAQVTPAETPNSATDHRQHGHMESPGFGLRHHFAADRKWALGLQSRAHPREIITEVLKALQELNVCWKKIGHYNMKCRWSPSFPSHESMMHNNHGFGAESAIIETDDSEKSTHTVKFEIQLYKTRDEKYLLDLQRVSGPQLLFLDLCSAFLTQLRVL

[2] = target: T2, SnRK1A-nYFP (rice (Oryza sativa L.)) (UniProt Q852Q2); assay: split reporter; BiFC: SnRK1A-nYFP and OsFLZ18-cYFP transiently co-expressed in Nicotiana benthamiana leaves, 72 h, confocal microscopy
T2 sequence: T1 sequence

[3] = target: T1, SUCROSE NO… 1-RELATED PROTEIN KINASE 1A fused to the GAL4 DNA-binding domain (rice (Oryza sativa L.)); assay: two-hybrid; yeast AH109; OsFLZ-AD (pGADT7) with SnRK1A-BD (pGBKT7); growth on SD/-Trp/-Leu/-His with 1 mM 3-AT
[4] = target: GST-tagged OsFLZ18 (rice (Oryza sativa L.)); assay: pull-down; GST or GST-OsFLZ18 on GST-resin incubated with His-SnRK1A in 50 mM Tris-HCl, 150 mM NaCl, 1 mM EDTA, 1% NP-40 at 4 °C overnight; immunoblot with anti-GST and anti-His

OsFLZ20 fused to the GAL4 activation domain (rice (Oryza sativa L.))
binding [1]: binds

OsFLZ18-cYFP (rice (Oryza sativa L.))
binding [2]: binds

OsFLZ27 fused to the GAL4 activation domain (rice (Oryza sativa L.))
binding [3]: binds

OsFLZ5 fused to the GAL4 activation domain (rice (Oryza sativa L.))
binding [1]: binds

OsFLZ10 fused to the GAL4 activation domain (rice (Oryza sativa L.))
binding [3]: binds

OsFLZ2 fused to the GAL4 activation domain (rice (Oryza sativa L.))
binding [1]: binds

OsFLZ18 fused to the GAL4 activation domain (rice (Oryza sativa L.))
binding [1]: binds

OsFLZ11 fused to the GAL4 activation domain (rice (Oryza sativa L.))
binding [1]: binds

OsFLZ6 fused to the GAL4 activation domain (rice (Oryza sativa L.))
binding [1]: binds

B1: His-tagged SnRK1A (enzyme, UniProt Q852Q2 1-505)
chain: T1 sequence
binding [4]: binds

From PMC8380221
